# Measurements reported in PubChem BioAssay AID686938 (Drosophila RNAi Screening Center, 2013)
# Screen: 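Knock-downs reducing store-operated calcium influx in Drosophila cells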 (primary screen)
# Cells: Drosophila S2R+ cells
# Reagent: long dsRNA against Drosophila genes, about 0.25 µg dsRNA per well, roughly 10,000 cells
# Duration: 5 days of knock-down before the calcium assay
# Treatment: thapsigargin (SERCA pump blocker) to empty calcium stores; entry signal taken 4 min after adding it
# Detection: 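Duplicate raw fluo-4 intensities per well from a plate reader, at rest and four minutes after thapsigargin emptied calcium stores; entry-to-rest ratio filled for only some wells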
# Direction: calcium entry signal: higher = stronger calcium signal after store depletion; entry to resting ratio: higher = more calcium entry relative to resting level; resting calcium signal: higher = higher resting calcium signal
# Rule for the call: 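Called when the plate z-score of the entry-to-rest ratio, mean of duplicates, falls below −3; wells with low overall dye signal (Fmax z below −2) or more than five off-targets excluded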
# Calls: active = strongly reduced calcium entry; inactive = no strong reduction
# The deposit covers about 23,000 reagents; below is an unselected part of those that have a named target and a result. Of all reagents, 75 (0.33%) were called active. 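Raw plate signals without normalisation; calls rest on plate z-scores that were not deposited; ratio present for only 364 wells.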 The numbers tell different reagents against one gene apart. Names joined by + are all predicted targets of the reagent. Reagent sequences are not shown. Not given: the dose of the treatment.
Gene,reagent no.,"calcium entry signal, replicate 1 (fluorescence units)","calcium entry signal, replicate 2 (fluorescence units)",entry to resting ratio,"resting calcium signal, replicate 1 (fluorescence units)","resting calcium signal, replicate 2 (fluorescence units)",Outcome
shf,1,2.94e7,4.11e7,,1.43e7,2.07e7,inactive
Vti1a,1,4.44e7,3.57e7,,2.18e7,1.80e7,inactive
Cyp4ac1,1,4.87e7,3.19e7,,2.21e7,1.51e7,inactive
dyl,1,3.68e7,3.61e7,,2.66e7,1.66e7,inactive
dyl,2,3.17e7,3.34e7,,1.81e7,1.71e7,inactive
HemK1,1,4.28e7,,,2.37e7,,inactive
CG32795,1,3.25e7,4.54e7,2,1.66e7,1.99e7,inactive
CG32795,2,3.24e7,5.37e7,2.1,1.53e7,2.07e7,inactive
CG15431,1,2.94e7,2.23e7,,1.44e7,1.05e7,inactive
mAChR-B,1,5.69e7,4.05e7,,2.74e7,1.91e7,inactive
CG8834,1,3.23e7,3.69e7,,1.69e7,1.77e7,inactive
chif,1,3.10e7,,,1.91e7,,inactive
Rpn13,1,3.77e7,3.88e7,,2.16e7,2.01e7,inactive
Orcokinin,1,4.09e7,4.11e7,,2.06e7,2.02e7,inactive
CG3594,1,3.77e7,,,2.03e7,,inactive
CG3594,2,3.03e7,4.30e7,,1.63e7,2.41e7,inactive
CG11883,1,4.42e7,4.35e7,,1.93e7,2.06e7,inactive
Obp50c + Obp50b,1,5.07e7,4.82e7,,2.67e7,1.99e7,inactive
CCHa2-R,1,1.98e7,4.99e7,,1.16e7,2.14e7,inactive
CCHa2-R,2,4.29e7,4.29e7,,2.14e7,2.03e7,inactive
CCHa2-R,3,4.05e7,4.64e7,,2.03e7,2.23e7,inactive
CG6788,1,2.76e7,3.29e7,,1.47e7,1.64e7,inactive
CG43367,1,3.63e7,4.17e7,,1.88e7,1.91e7,inactive
CG43367,2,3.69e7,3.95e7,,1.98e7,2.03e7,inactive
CG43367,3,2.95e7,3.76e7,,1.74e7,1.81e7,inactive
cwo,1,3.35e7,4.11e7,,2.08e7,2.24e7,inactive
CG5089,1,3.90e7,3.06e7,,1.77e7,1.60e7,inactive
GABA-B-R3,1,2.71e7,2.67e7,,1.40e7,1.27e7,inactive
CG10508,1,4.17e7,5.12e7,,1.74e7,3.37e7,inactive
CG10508,2,3.38e7,4.71e7,,1.59e7,1.97e7,inactive
MED27,1,3.41e7,2.25e7,,1.62e7,1.12e7,inactive
CG14424,1,4.63e7,6.16e7,2,2.28e7,2.60e7,inactive

9 successive reagents already listed, for reference:
Gene,reagent no.,"calcium entry signal, replicate 1 (fluorescence units)","calcium entry signal, replicate 2 (fluorescence units)",entry to resting ratio,"resting calcium signal, replicate 1 (fluorescence units)","resting calcium signal, replicate 2 (fluorescence units)",Outcome
Obp50c + Obp50b,1,5.07e7,4.82e7,,2.67e7,1.99e7,inactive
CCHa2-R,1,1.98e7,4.99e7,,1.16e7,2.14e7,inactive
CCHa2-R,2,4.29e7,4.29e7,,2.14e7,2.03e7,inactive
CCHa2-R,3,4.05e7,4.64e7,,2.03e7,2.23e7,inactive
CG6788,1,2.76e7,3.29e7,,1.47e7,1.64e7,inactive
CG43367,1,3.63e7,4.17e7,,1.88e7,1.91e7,inactive
CG43367,2,3.69e7,3.95e7,,1.98e7,2.03e7,inactive
CG43367,3,2.95e7,3.76e7,,1.74e7,1.81e7,inactive
cwo,1,3.35e7,4.11e7,,2.08e7,2.24e7,inactive

Additional results:
Gene,reagent no.,"calcium entry signal, replicate 1 (fluorescence units)","calcium entry signal, replicate 2 (fluorescence units)",entry to resting ratio,"resting calcium signal, replicate 1 (fluorescence units)","resting calcium signal, replicate 2 (fluorescence units)",Outcome
Hipk,1,4.87e7,5.70e7,,3.14e7,2.91e7,inactive
Hipk,2,5.06e7,4.50e7,,2.18e7,2.16e7,inactive
Hipk,3,3.35e7,3.64e7,,1.81e7,1.96e7,inactive
Epg5,1,3.84e7,3.57e7,,6.67e7,1.50e7,inactive
CG17104,1,4.71e7,,,2.33e7,,inactive
CG17002,1,4.12e7,,,2.10e7,,inactive
CG3306,1,6.01e7,4.59e7,,3.89e7,1.86e7,inactive
CG14252,1,2.96e7,5.20e7,,1.64e7,2.24e7,inactive
flfl,1,2.39e7,2.04e7,,1.04e7,1.11e7,inactive
FASN3,1,3.94e7,3.81e7,,2.19e7,1.77e7,inactive
CG6465,1,3.66e7,5.21e7,,1.63e7,2.08e7,inactive
Gdh,1,3.18e7,2.69e7,,1.72e7,1.28e7,inactive
CG42383,1,3.08e7,2.99e7,,1.67e7,1.43e7,inactive
Shmt,1,3.27e7,4.56e7,,1.54e7,2.05e7,inactive
CG14418,1,7.18e7,5.66e7,2.3,3.18e7,2.40e7,inactive
CG14418,2,3.36e7,4.18e7,,1.72e7,1.83e7,inactive
Cln7,1,4.58e7,3.69e7,,2.89e7,1.66e7,inactive
CG42561,1,3.79e7,4.52e7,,1.74e7,2.39e7,inactive
can,1,3.90e7,3.62e7,,2.04e7,1.80e7,inactive
CR31822,1,3.38e7,3.63e7,,1.93e7,1.94e7,inactive
CG17237,1,4.31e7,4.84e7,,1.92e7,2.08e7,inactive
Dhc62B,1,3.99e7,3.86e7,,1.91e7,1.80e7,inactive
hay,1,2.98e7,2.31e7,,2.39e7,1.06e7,inactive
CG11249,1,3.24e7,4.26e7,,1.46e7,1.93e7,inactive
Tsp42Eg,1,4.23e7,,,2.12e7,,inactive
CG7058,1,4.45e7,3.48e7,,2.07e7,1.54e7,inactive
